Assay results taken from PubChem BioAssay AID250 (DTP/NCI, 2004).
The list shows only some results of the screen, not a fair sample: it is rich in T/C values a quarter to a half above the control, in often repeated tests (any T/C) and in doses without a T/C. Other doses and runs of a compound stand elsewhere. T/C: endpoint of the treated group in % of that of the vehicle group. Some entries give survivors of the animals treated and no T/C: the source holds a T/C of zero for them, seemingly a mark for toxic or unscored doses. Some survivor counts are full or nearly so, which does not show that the dose was tolerated: survival well below the control is almost never listed, so the zero probably covers shortened survival too. For some assays here: Survivors were counted at the toxicity check, usually on the fifth day, unless a day is given; later deaths do not show. Schedules are NCI's codes, read here as Q, the interval in days (D) or hours (H), X, the number of doses. Some schedule codes hold Z or #, which are not explained here. Some doses were run more than once; the results are listed from low to high. For survival time, this PubChem deposit counts one and a half times the control or more as active, and values a quarter to a half above the control carry no call in these data; other NCI protocols may use other cut-offs. Some T/C values are followed by the survivors on the day toxicity was checked, most often the fifth; where none is given, no animal had died by that day.

Columns and labels:
[1] = tested on: BDF1 mice, L1210 leukemia sc; experiment: NCI In Vivo Anticancer Drug Screen. Data for tumor model L1210 Leukemia (subcutaneous) in B6D2F1 (BDF1) mice; settings: higher T/C = longer survival
In short: (§1)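 Mice carrying transplanted tumors received test compounds, and survival or tumor size was measured. Values are the treated-group measurement (T) divided by that of the vehicle-treated control group (C).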

[2] = tested on: BDF1 mice, L1210 leukemia sc, survival T/C; experiment: as above; settings: higher T/C = longer survival
In short: as §1

[3] = T/C endpoint: median survival time, dose: 65.0 mg/kg/injection, schedule: Q01DX Z (sc), vehicle: saline

## Cc1cccc2c(Nc3ccc(NS(C)(=O)=O)cc3)c3ccc([N+](=O)[O-])cc3nc12
[1]; T/C endpoint: mean survival time, dose: 20.0 mg/kg/injection, schedule: Q01DX009 (ip), vehicle: saline
  T/C: 129 % of control
[2]; T/C endpoint: mean survival time, dose: 40.0 mg/kg/injection, schedule: Q01DX009 (ip), vehicle: saline
  survivor count: 10 of 10
[2]; T/C endpoint: mean survival time, dose: 80.0 mg/kg/injection, schedule: Q01DX009 (ip), vehicle: saline
  survivor count: 10 of 10

## NC(=S)N/N=C/c1ccc(O)cn1
[1]; T/C endpoint: median survival time, dose: 10.0 mg/kg/injection, schedule: Q03HX024 (ip), vehicle: other
  T/C: 138 % of control
[1]; T/C endpoint: median survival time, dose: 14.0 mg/kg/injection, schedule: Q03HX024 (sc), vehicle: none
  T/C: 130 % of control
[1]; T/C endpoint: median survival time, dose: 14.0 mg/kg/injection, schedule: Q03HX024 (sc), vehicle: other, evaluated on day 7
  T/C: 137 and 146 % of control
[1]; T/C endpoint: median survival time, dose: 14.0 mg/kg/injection, schedule: Q03HX024 (sc), vehicle: other, evaluated on day 32
  T/C: 140 % of control
[1]; T/C endpoint: median survival time, dose: 50.0 mg/kg/injection, schedule: Q01DX009 (ip), vehicle: other
  T/C: 144 % of control
[1]; T/C endpoint: median survival time, dose: 50.0 mg/kg/injection, schedule: Q01DX009 (sc), vehicle: other
  T/C: 144 % of control
[1]; T/C endpoint: median survival time, dose: 60.0 mg/kg/injection, schedule: Q03HX024 (sc), vehicle: other
  T/C: 144 % of control
[1]; T/C endpoint: median survival time, dose: 65.0 mg/kg/injection, schedule: Q03HX024 (sc), vehicle: none
  T/C: 130 % of control
[1]; T/C endpoint: median survival time, dose: 65.0 mg/kg/injection, schedule: Q03HX024 (sc), vehicle: other, evaluated on day 7
  T/C: 126 and 138 % of control
[1]; T/C endpoint: median survival time, dose: 65.0 mg/kg/injection, schedule: Q03HX024 (sc), vehicle: other, evaluated on day 30
  T/C: 144 % of control
[1]; T/C endpoint: median survival time, dose: 65.0 mg/kg/injection, schedule: Q03HX024 (sc), vehicle: other, evaluated on day 32
  T/C: 130 % of control
[1]; T/C endpoint: median survival time, dose: 300.0 mg/kg/injection, schedule: Q01DX009 (sc), vehicle: other
  T/C: 146 % of control
[1]; T/C endpoint: median survival time, dose: 500.0 mg/kg/injection, schedule: Q01DX Z (sc), vehicle: saline
  T/C: 139 % of control
[1]; T/C endpoint: median survival time, dose: 500.0 mg/kg/injection, schedule: Q11HX006 (sc), vehicle: water
  T/C: 133 % of control
[2]; T/C endpoint: median survival time, dose: 5.0 mg/kg/injection, schedule: Q03HX024 (sc), vehicle: other
  survivor count: 0 of 8
[2]; T/C endpoint: median survival time, dose: 8.4 mg/kg/injection, schedule: Q03HX024 (sc), vehicle: other
  survivor count: 0 of 8
[2]; T/C endpoint: median survival time, dose: 14.0 mg/kg/injection, schedule: Q03HX024 (sc), vehicle: other, evaluated on day 30
  T/C: 150 % of control
[2]; T/C endpoint: median survival time, dose: 23.0 mg/kg/injection, schedule: Q03HX024 (sc), vehicle: other, evaluated on day 7
  T/C: 187 and 192 % of control
[2]; T/C endpoint: median survival time, dose: 23.0 mg/kg/injection, schedule: Q03HX024 (sc), vehicle: other, evaluated on day 30
  T/C: 194 % of control
[2]; T/C endpoint: median survival time, dose: 23.0 mg/kg/injection, schedule: Q03HX024 (sc), vehicle: other, evaluated on day 32
  T/C: 190 % of control
[2]; T/C endpoint: median survival time, dose: 39.0 mg/kg/injection, schedule: Q03HX024 (sc), vehicle: other, evaluated on day 7
  T/C: 188 and 194 % of control
[2]; T/C endpoint: median survival time, dose: 39.0 mg/kg/injection, schedule: Q03HX024 (sc), vehicle: other, evaluated on day 30
  T/C: 200 % of control
[2]; T/C endpoint: median survival time, dose: 39.0 mg/kg/injection, schedule: Q03HX024 (sc), vehicle: other, evaluated on day 32
  T/C: 185 % of control
[2]; T/C endpoint: median survival time, dose: 400.0 mg/kg/injection, schedule: Q01DX009 (ip), vehicle: other
  survivor count: 7 of 8
[2]; T/C endpoint: median survival time, dose: 500.0 mg/kg/injection, schedule: Q04DX003 (sc), vehicle: water
  survivor count: 5 of 8
[2]; T/C endpoint: median survival time, dose: 800.0 mg/kg/injection, schedule: Q04DX003 (ip), vehicle: other
  survivor count: 0 of 8
[2]; T/C endpoint: median survival time, dose: 800.0 mg/kg/injection, schedule: Q04DX003 (sc), vehicle: other
  survivor count: 2 of 8
[2]; T/C endpoint: median survival time, dose: 833.0 mg/kg/injection, schedule: Q04DX003 (sc), vehicle: water
  survivor count: 4 of 8
[2]; T/C endpoint: median survival time, dose: 833.0 mg/kg/injection, schedule: Q11HX006 (sc), vehicle: water
  survivor count: 0 of 8
[2]; T/C endpoint: median survival time, dose: 1388.0 mg/kg/injection, schedule: Q04DX003 (sc), vehicle: water
  survivor count: 0 of 8
[2]; T/C endpoint: median survival time, dose: 1388.0 mg/kg/injection, schedule: Q11HX006 (sc), vehicle: water
  survivor count: 0 of 8

## CN(N=O)C(N)=O
[1]; T/C endpoint: median survival time, dose: 12.0 mg/kg/injection, schedule: Q01DX009 (ip), vehicle: saline
  T/C: 140 % of control [7 of 8 alive]
[1]; T/C endpoint: median survival time, dose: 24.0 mg/kg/injection, schedule: Q01DX009 (ip), vehicle: saline
  T/C: 140 % of control
[1]; T/C endpoint: median survival time, dose: 51.8 mg/kg/injection, schedule: Q01DX Z (sc), vehicle: saline
  T/C: 145 % of control [9 of 10 alive]
[1]; [3]
  T/C: 140 % of control [9 of 10 alive]
[1]; T/C endpoint: median survival time, dose: 108.0 mg/kg/injection, schedule: Q01DX Z (sc), vehicle: saline
  T/C: 127 % of control
[2]; T/C endpoint: median survival time, dose: 3.0 mg/kg/injection, schedule: Q01DX Z (sc), vehicle: saline
  survivor count: 2 of 10
[2]; T/C endpoint: median survival time, dose: 5.0 mg/kg/injection, schedule: Q01DX Z (sc), vehicle: saline
  survivor count: 4 of 10
[2]; T/C endpoint: median survival time, dose: 8.4 mg/kg/injection, schedule: Q01DX Z (sc), vehicle: saline
  survivor count: 4 of 10 and 5 of 10
[2]; T/C endpoint: median survival time, dose: 14.0 mg/kg/injection, schedule: Q01DX Z (sc), vehicle: saline
  survivor count: 4 of 10 and 5 of 10
[2]; T/C endpoint: median survival time, dose: 23.0 mg/kg/injection, schedule: Q01DX Z (sc), vehicle: saline
  survivor count: 5 of 10
[2]; T/C endpoint: median survival time, dose: 48.0 mg/kg/injection, schedule: Q01DX009 (ip), vehicle: saline
  survivor count: 8 of 8
[2]; [3]
  survivor count: 6 of 10
[2]; T/C endpoint: median survival time, dose: 240.0 mg/kg/injection, schedule: Q01DX Z (sc), vehicle: saline
  survivor count: 3 of 10

## C1OC1CN1CCC(C2CCN(CC3CO3)CC2)CC1 (stereo unspecified)
[1]; T/C endpoint: median survival time, dose: 65.0 mg/kg/injection, schedule: Q01DX Z (sc), vehicle: methylcellulose (MC)
  T/C: 127 % of control [8 of 10 alive]
[1]; T/C endpoint: median survival time, dose: 108.0 mg/kg/injection, schedule: Q03DX Z (sc), vehicle: methylcellulose (MC)
  T/C: 136 % of control
[2]; T/C endpoint: median survival time, dose: 8.4 mg/kg/injection, schedule: Q01DX Z (sc), vehicle: methylcellulose (MC)
  survivor count: 6 of 10
[2]; T/C endpoint: median survival time, dose: 8.4 mg/kg/injection, schedule: Q03DX Z (sc), vehicle: methylcellulose (MC)
  survivor count: 5 of 10
[2]; T/C endpoint: median survival time, dose: 14.0 mg/kg/injection, schedule: Q03DX Z (sc), vehicle: methylcellulose (MC)
  survivor count: 5 of 10
[2]; T/C endpoint: median survival time, dose: 23.0 mg/kg/injection, schedule: Q03DX Z (sc), vehicle: methylcellulose (MC)
  survivor count: 5 of 10
[2]; T/C endpoint: median survival time, dose: 39.0 mg/kg/injection, schedule: Q01DX Z (sc), vehicle: methylcellulose (MC)
  survivor count: 3 of 10
[2]; T/C endpoint: median survival time, dose: 39.0 mg/kg/injection, schedule: Q03DX Z (sc), vehicle: methylcellulose (MC)
  survivor count: 5 of 10
[2]; T/C endpoint: median survival time, dose: 300.0 mg/kg/injection, schedule: Q03DX Z (sc), vehicle: methylcellulose (MC)
  survivor count: 0 of 10
